Assay results reported in PMC2842432.
No constants are given. Whether binding was seen depends on the method and setting. Binding seen in cells or lysates may run through a third protein. Some entries that bind do so weakly or less than the wild type. Where a sequence is shown, tags or fusion partners need not be part of it.

Columns and labels:
[1] = target: T1, FSH-tagged Gal-TRβ (aa 189-461) expressed in HEK293 cells (human) (UniProt P10828); assay: co-IP; HEK293 cells co-transfected with FLAG-HIPK3 and FSH-tagged Gal fusion; IP buffer (50 mM Tris pH 8, 150 mM NaCl, 1 mM EDTA, 0.75% NP-40, 1 mM DTT); Gal fusion captured on Strep-Tactin, 3 washes; FLAG-M2 Western blot
T1 sequence: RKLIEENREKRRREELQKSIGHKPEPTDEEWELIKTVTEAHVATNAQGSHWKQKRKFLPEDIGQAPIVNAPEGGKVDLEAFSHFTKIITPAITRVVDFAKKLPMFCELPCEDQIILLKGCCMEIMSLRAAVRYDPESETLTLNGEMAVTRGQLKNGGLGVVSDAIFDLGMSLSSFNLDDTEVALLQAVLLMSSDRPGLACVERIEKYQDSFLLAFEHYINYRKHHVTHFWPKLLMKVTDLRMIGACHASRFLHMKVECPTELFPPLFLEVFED

[2] = target: T2, FSH-tagged Gal-TRβ_(ΔAF2) (aa 189-451) expressed in HEK293 cells (human) (UniProt P10828); assay: as above
T2 sequence: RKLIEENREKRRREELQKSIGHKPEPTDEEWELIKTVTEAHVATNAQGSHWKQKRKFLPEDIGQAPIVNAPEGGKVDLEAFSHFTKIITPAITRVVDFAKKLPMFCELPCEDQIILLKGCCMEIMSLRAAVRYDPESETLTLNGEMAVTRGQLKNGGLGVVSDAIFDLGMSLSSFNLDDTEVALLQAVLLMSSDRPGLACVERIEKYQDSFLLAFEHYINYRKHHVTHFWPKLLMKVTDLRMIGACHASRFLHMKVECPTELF

B1: FLAG-HIPK3 (2-1191) (enzyme, UniProt O88850 2-1191)
chain: ASQVLVYPPYVYQTQSSAFCSVKKLKVEPSGCVFQERACPQIHVNGRHFGNPLPSTKGSAFQTKIPFSKPRGHSFSLQAGAIVVKDTAGATKVIAAQAQQAGVEAPRAVVWRNRLHFLGGPQRCGLKRKSEELDNHSGAMQIVDELSILPAMLQTNMGNPVTVVTATTGSKQNCTSGEGDYQLVQHEVLCSVKNTYEVLDFLGRGTFGQVVKCWKRGTNEIVAIKILKNHPSYARQGQIEVSILARLSTENADEYNFVRAYECFQHRNHTCLVFEMLEQNLYDFLKQNKFSPLPLKVIRPVLQQVATALKKLKSLGLIHADLKPENIMLVDPVRQPYRVKVIDFGSASHVSKTVCSTYLQSRYYRAPEIILGLPFCEAIDMWSLGCVIAELFLGWPLYPGALEYDQIRYISQTQGLPGEQLLNVGTKSTRFFCRETDMSHSGWRLKTLEEHEAETGMKSKEARKYIFNSLDDIVHVNTVMDLEGSDLLAEKADRREFVSLLKKMLLIDADLRITPIETLNHPFVSMKHLLDFPHSSHVKSCFHIMDICKSPSSCETNNHSKMSLLRPVASNGTAALAANFTKVGTLRSQALTTSAHSVVHHGIPLQAGTAQFGCGDAFHQTLIICPPAIQGIPAAHGKPTSYSIRVDNTVPLVTQAPAVQPLQIRPGVLSQTWSGRTQQMLIPAWQQVTPMAPAAATLTSEGMAGSQRLGDWGKMIPHSNHYNSVMPPPLLTNQITLSAPQPISVGIAHVVWPQPATTKKNKLCQNRSNSLQNTNVPHSAFISPKIISGKEVEEVSCVETQDNHTSEGEARTCHEASVRQDSSVSDKQRQTIIIADSPSPAVSVITISSDTDDEETSPRPSLRECKGSLDCEACQSTLNIDRMCSLSSPDSTLSTSSSGQSSPSPCKRPNSMSDDEQESGCETVDGSPTSDSSGHDSPFAESSFVEDTPQNPELGTCAGTEAKPALSTAVEPPVGTERGLNVDAHMANTDSTCQPLTKGQPAPGKLNQPSASAARQQKPTSAFQQQHLNLSQVQHFGTGHQEWNGNFGHRRQQAYIPTSVTSNPFTLSHGSPNHTAVHAHLAGSAHLGGQPTLLPYPPSTALSSAAPVAHLLASPCTSRPMLQHPTYNISHPSGIVHQVPVGINPRLLPSPTIHQTQYKPIFPPHSYIAASPAYTGFPLSPTKLSQYPYM
- binding [1]: binds
- binding [2]: binds
